Reference: US7105647

Target: Hsp90
Assay: co-IP with anti-Hsp90 antibody (discussion)

- binding: binds
B1: MOP4 (protein)
chain: MDEDEKDRAKRASRNKSEKKRRDQFNVLIKELSSMLPGNTRKMDKTTVLEEVIGFLQKHNEVSAQTEICDIQQDWKPSFLSNEEFTQLMLEALDGFIIAVTTDGSIIYVSDSITPLLGHLPSDVMDQNLLNFLPEQEHSEVYKILSSHMLVTDSPSPEYLKSDGDLEFYCHLLRGSLNPKEFPTYEYIKFVGNFRSYNNVPSPSCNGFDNTLSRPCRVPLGKEVCFIATVRLATPQFLKEMCIVDEPLEEFTSRHSLEWKFLFLDHRAPPIIGYLPFEVLGTSGYDYYHIDDLELLARCHQHLMQFGKGKSCCYRFLTKGQQWIWLQTHYYITYHQWNSKPEFIVCTHSVVSYADVRVERRQELALEDPPSEALHSSALKDKGSSLEPRQHFNALDVGASGLNTSHSPSASSRSSHKSSHTAMSEPTSTPTKLMAEASTPALPRSATLPQELPVPGLSQAATMPAPLPSPSSCDLTQQLLPQTVLQSTPAPMAQFSAQFSMFQTIKDQLEQRTRILQANIRWQQEELHKIQEQLCLVQDSNVQMFLQQPAVSLSFSSTQRPEAQQQLQQRSAAVTQPQLGAGPQLPGQISSAQVTSQHLLRESSVISTQGPKPMRSSQLMQSSGRS

Results are given in words; binding and its absence hold for the method and conditions named. In cells and extracts the contact can be indirect. A result given as binding can be weak or reduced; the word gives no strength.
